# Experimental data as given in PMC11285139.
# By UniProt entry, the sequences of proteins in these tests, tags left out.
# UniProt P31947: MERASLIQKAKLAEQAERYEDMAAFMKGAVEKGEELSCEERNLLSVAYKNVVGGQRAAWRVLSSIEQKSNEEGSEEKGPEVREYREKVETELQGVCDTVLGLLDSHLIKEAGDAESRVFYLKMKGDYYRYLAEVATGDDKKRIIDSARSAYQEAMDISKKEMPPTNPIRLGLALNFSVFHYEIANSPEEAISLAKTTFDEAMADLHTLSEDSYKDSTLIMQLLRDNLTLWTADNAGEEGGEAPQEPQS
# UniProt P15311: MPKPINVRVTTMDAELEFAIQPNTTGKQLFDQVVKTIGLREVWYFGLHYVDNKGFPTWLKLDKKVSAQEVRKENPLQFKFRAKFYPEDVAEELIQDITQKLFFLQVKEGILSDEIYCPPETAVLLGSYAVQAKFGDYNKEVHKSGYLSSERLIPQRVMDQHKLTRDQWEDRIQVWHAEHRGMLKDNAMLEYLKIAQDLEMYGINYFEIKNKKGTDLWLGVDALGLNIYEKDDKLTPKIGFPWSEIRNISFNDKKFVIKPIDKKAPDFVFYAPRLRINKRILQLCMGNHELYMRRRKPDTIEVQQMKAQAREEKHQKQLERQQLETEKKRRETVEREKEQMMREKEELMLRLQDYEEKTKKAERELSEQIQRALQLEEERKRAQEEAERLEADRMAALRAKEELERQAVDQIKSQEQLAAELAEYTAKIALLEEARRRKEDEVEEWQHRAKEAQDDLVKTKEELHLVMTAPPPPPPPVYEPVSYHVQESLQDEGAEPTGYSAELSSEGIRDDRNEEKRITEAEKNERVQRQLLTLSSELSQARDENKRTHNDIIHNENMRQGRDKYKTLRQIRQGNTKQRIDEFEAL
# UniProt P26038: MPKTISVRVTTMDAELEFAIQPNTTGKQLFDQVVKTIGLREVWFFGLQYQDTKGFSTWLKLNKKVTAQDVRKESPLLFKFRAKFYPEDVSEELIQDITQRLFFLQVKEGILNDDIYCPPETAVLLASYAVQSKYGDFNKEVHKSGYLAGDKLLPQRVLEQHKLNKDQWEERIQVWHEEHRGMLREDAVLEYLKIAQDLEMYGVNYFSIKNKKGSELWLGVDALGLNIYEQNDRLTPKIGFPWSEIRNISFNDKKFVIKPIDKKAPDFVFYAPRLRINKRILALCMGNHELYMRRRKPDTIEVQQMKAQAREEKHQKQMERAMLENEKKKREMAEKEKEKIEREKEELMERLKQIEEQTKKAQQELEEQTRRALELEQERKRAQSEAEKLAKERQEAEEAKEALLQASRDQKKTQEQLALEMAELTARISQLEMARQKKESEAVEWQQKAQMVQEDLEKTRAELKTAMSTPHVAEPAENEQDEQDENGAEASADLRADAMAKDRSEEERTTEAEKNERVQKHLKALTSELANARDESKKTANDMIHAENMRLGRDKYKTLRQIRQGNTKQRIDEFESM
# UniProt P10644: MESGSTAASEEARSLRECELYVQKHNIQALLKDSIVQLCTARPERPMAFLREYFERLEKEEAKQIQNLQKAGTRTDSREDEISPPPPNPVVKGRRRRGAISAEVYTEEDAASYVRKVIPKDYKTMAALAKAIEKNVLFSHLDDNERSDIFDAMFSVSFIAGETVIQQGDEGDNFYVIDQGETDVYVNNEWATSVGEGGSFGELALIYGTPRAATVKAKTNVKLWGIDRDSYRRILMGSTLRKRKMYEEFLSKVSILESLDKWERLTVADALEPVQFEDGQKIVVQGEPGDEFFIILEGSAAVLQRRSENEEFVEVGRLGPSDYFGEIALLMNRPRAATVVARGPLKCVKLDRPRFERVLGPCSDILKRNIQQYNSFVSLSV
# UniProt Q13526: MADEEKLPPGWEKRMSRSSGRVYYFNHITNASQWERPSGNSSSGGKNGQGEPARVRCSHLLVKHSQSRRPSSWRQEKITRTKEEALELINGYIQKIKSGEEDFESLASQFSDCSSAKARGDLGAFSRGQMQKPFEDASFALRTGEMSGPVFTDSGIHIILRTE
# UniProt P27986: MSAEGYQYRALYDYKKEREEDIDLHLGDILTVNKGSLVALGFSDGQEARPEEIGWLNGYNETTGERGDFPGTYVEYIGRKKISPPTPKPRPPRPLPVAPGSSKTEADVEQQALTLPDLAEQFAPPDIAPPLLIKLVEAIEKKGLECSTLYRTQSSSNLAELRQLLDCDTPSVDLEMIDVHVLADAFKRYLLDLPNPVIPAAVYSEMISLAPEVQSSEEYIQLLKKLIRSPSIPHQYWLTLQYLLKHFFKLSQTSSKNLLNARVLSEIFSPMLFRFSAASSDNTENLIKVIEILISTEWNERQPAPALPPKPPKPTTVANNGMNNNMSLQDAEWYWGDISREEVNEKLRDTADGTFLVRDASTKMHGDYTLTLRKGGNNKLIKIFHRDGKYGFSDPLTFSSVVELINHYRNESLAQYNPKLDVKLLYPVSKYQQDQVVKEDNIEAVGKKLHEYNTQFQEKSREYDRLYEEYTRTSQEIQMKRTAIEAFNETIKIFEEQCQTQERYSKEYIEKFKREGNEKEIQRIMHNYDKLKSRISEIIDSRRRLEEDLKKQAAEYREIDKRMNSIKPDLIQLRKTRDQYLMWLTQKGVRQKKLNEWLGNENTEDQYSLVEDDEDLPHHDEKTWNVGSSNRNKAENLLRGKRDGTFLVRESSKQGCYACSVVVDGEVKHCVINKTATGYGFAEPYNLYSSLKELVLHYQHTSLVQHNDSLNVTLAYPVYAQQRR
# UniProt P35241: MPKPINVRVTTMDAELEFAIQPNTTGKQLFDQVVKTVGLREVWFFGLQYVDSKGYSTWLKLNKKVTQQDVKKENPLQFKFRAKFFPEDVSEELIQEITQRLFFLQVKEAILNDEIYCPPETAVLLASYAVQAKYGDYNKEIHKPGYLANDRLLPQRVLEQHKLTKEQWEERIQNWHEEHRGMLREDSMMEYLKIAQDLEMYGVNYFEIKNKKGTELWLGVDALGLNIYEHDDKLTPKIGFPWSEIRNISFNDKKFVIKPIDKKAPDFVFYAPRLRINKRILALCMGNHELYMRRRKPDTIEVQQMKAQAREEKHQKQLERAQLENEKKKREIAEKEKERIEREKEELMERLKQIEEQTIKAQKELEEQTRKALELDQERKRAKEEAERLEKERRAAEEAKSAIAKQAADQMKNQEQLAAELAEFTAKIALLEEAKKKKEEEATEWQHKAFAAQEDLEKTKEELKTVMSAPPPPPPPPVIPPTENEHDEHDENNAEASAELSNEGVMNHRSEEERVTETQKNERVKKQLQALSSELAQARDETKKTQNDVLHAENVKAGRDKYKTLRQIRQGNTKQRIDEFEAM
# UniProt P62140: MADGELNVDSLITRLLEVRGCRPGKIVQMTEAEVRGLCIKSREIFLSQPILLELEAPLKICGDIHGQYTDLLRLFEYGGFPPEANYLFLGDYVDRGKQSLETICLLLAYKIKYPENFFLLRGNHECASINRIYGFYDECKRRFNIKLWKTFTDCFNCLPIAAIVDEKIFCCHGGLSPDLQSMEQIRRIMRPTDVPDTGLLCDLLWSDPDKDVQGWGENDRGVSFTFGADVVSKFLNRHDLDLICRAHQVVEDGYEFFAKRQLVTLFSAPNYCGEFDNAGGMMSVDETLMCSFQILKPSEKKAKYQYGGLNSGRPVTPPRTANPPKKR
# Results are given in words; binding and its absence hold for the method and conditions named. In cells and extracts the contact can be indirect. These calls come from enrichment with a bait or labelling near it, and not all partners need be listed.
# Target: Flag-HA-tagged CRABP1 (Cellular Retinoic Acid Binding Protein 1) (UniProt P29762)
# Assay: affinity purification with mass spectrometry; Flag-IP (M2-Flag agarose beads) from lysate of HEK293T cells transfected with Flag-HA-CRABP1, empty Flag-HA vector as control; cells in DCC medium 24 h before harvest (no atRA); Co-IP buffer 50 mM Tris-HCl pH 8.0, 150 mM NaCl, 10 mM MgCl2, 0.2% NP-40, 10% glycerol; candidates: enrichment value > 0, then CRAPome screening
row,Molecule,binding
1,14-3-3 protein sigma/ Strafilin (from UniProt P31947 1-248),binds
2,Ezrin (from UniProt P15311 1-586),binds
3,Moesin (from UniProt P26038 1-577),binds
4,PKA-RI alpha (endogenous in HEK293T) (from UniProt P10644 1-381),binds
5,Peptidyl-prolyl cis-trans isomerase NIMA-interacting 1 (PIN1) (from UniProt Q13526 1-163) (enzyme),binds
6,Phosphatidylinositol 3-kinase (PI3K) regulatory subunit alpha (p85) (from UniProt P27986 1-724),binds
7,Radixin (from UniProt P35241 1-583),binds
8,Serine/threonine-protein phosphatase (PP1) (from UniProt P62140 1-327) (enzyme),binds
9,"Heterogeneous nuclear ribonucleoprotein A0 (protein, UniProt Q13151 1-305) MENSQLCKLFIGGLNVQTSESGLRGHFEAFGTLTDCVVVVNPQTKRSRCFGFVTYSNVEEADAAMAASPHAVDGNTVELKRAVSREDSARPGAHAKVKKLFVGGLKGDVAEGDLIEHFSQFGTVEKAEIIADKQSGKKRGFGFVYFQNHDAADKAAVVKFHPIQGHRVEVKKAVPKEDIYSGGGGGGSRSSRGGRGGRGRGGGRDQNGLSKGGGGGYNSYGGYGGGGGGGYNAYGGGGGGSSYGGSDYGNGFGGFGSYSQHQSSYGPMKSGGGGGGGGSSWGGRSNSGPYRGGYGGGGGYGGSSF",binds
10,"Glutaredoxin-3/ PKC-interacting cousin of thioredoxin (PICOT) (protein, UniProt O76003 1-335) MAAGAAEAAVAAVEEVGSAGQFEELLRLKAKSLLVVHFWAPWAPQCAQMNEVMAELAKELPQVSFVKLEAEGVPEVSEKYEISSVPTFLFFKNSQKIDRLDGAHAPELTKKVQRHASSGSFLPSANEHLKEDLNLRLKKLTHAAPCMLFMKGTPQEPRCGFSKQMVEILHKHNIQFSSFDIFSDEEVRQGLKAYSSWPTYPQLYVSGELIGGLDIIKELEASEELDTICPKAPKLEERLKVLTNKASVMLFMKGNKQEAKCGFSKQILEILNSTGVEYETFDILEDEEVRQGLKAYSNWPTYPQLYVKGELVGGLDIVKELKENGELLPILRGEN",binds
11,"Twinfilin-2 (protein, UniProt Q6IBS0 1-349) MAHQTGIHATEELKEFFAKARAGSVRLIKVVIEDEQLVLGASQEPVGRWDQDYDRAVLPLLDAQQPCYLLYRLDSQNAQGFEWLFLAWSPDNSPVRLKMLYAATRATVKKEFGGGHIKDELFGTVKDDLSFAGYQKHLSSCAAPAPLTSAERELQQIRINEVKTEISVESKHQTLQGLAFPLQPEAQRALQQLKQKMVNYIQMKLDLERETIELVHTEPTDVAQLPSRVPRDAARYHFFLYKHTHEGDPLESVVFIYSMPGYKCSIKERMLYSSCKSRLLDSVEQDFHLEIAKKIEIGDGAELTAEFLYDEVHPKQHAFKQAFAKPKGPGGKRGHKRLIRGPGENGDDS",binds
